Consider two molecules from article PMC8962522, “Direct interaction of TrkA/CD44v3 is essential for NGF-promoted aggressiveness of breast cancer cells” (Journal of Experimental & Clinical Cancer Research : CR, 2022).

By UniProt entry, the sequences of proteins in these tests, tags left out. Residues count along the entry.
UniProt P04629, residues 34-423: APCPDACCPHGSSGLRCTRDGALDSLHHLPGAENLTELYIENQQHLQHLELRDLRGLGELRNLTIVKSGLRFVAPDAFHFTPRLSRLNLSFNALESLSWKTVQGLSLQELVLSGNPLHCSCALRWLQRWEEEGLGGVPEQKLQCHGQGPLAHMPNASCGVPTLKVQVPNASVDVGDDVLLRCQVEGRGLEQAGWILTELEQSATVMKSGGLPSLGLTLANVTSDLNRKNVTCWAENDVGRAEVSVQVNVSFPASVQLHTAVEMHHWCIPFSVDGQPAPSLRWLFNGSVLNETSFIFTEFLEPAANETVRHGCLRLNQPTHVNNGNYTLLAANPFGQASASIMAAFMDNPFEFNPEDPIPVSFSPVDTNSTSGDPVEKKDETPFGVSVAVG

The target in the experiment is TrkA-His tagged extracellular domain protein (Ala 34-Gly423) (UniProt P04629). The experiment in a line: MST; binding check: peptides and TrkA-His labelled with RED-Tris-NTA; PBS-T; high MST power, 100% LED; both purified.

No constants are given. Whether binding was seen depends on the method and setting.

In the case of KSTSSNTISAG [CD44v3 mimetic peptide 1], the binding entry is “no binding”.

On to WEPNEENEDE [CD44v3 mimetic peptide 2], for which the binding entry was “no binding”.
